From ChEMBL document CHEMBL3988442, “University of Dundee, Small-Polar-MMV Screening Library” (2021).

Amino acid sequences for entries named in this document (tags omitted).
UniProt E9BF75, entry or part of it: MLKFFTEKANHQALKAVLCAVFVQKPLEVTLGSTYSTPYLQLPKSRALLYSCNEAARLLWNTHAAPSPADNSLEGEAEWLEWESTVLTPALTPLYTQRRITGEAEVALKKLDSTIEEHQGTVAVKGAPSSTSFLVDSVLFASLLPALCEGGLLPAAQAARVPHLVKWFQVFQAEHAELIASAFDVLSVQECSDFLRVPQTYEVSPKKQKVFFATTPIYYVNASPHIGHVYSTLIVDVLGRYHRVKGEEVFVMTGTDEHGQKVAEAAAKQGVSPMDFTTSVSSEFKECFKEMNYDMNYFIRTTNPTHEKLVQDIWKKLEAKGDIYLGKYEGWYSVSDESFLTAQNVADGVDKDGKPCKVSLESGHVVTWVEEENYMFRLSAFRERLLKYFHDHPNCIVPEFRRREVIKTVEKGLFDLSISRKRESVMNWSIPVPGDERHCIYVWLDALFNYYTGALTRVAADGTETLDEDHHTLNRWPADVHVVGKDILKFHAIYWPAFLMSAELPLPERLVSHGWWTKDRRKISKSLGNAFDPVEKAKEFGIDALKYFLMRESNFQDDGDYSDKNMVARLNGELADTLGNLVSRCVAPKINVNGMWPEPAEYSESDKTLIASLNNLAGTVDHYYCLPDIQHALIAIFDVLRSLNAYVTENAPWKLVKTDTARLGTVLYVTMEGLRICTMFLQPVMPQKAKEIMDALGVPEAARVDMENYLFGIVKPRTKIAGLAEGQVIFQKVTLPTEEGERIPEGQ

A: 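Assay on Mycobacterium tuberculosis, filed only as a heat shock assay from Cornell; the read-out is not stated. The concentration is filed as 10 mM, unlikely as a test dose, so the dose is not known. Higher reads as stronger inhibition (inferred: compounds with an IC50 in retests scored well above the rest). About 69,000 compounds were tested under these conditions; 1.4% (about 930) showed 50% or more at least once.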
B: 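Primary screen of methionyl-tRNA synthetase; the read-out is not stated. Target: Methionyl-tRNA synthetase (putative), Leishmania donovani (UniProt E9BF75). The test concentration is not given. The values are filed as inhibition. Of about 68,000 compounds tested this way, about 24 (0.035%) reached 50% or more in at least one test.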
C: 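Whole-cell assay for inhibitors of Mycobacterium tuberculosis growth, labelled Cornell in the record; the read-out is not stated. The concentration is filed as 10 mM, unlikely as a test dose, so the dose is not known. The record gives no direction; compounds strong in two other growth screens of this library score well above the rest, so higher reads as stronger inhibition. Of about 53,000 compounds tested this way, about 900 (1.7%) reached 50% or more in at least one test.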

Results are percentages, as filed.
The record does not define 0% and 100%; most values in the screen are far below 50% and negative numbers occur (in some assays of this library far below -100).
This is an unselected part of the compounds tested.
A dash means the value is not listed here; it may have been measured.

| structure | A | B | C |
|---|---|---|---|
| `CC(Cn1cccn1)Nc1cnc2ccccc2n1` (stereo not drawn) | 9.029% | 9.392% | - |
| `Cc1ncc(C)c(N2Cc3cnn(Cc4ccc(F)cc4)c3C2)n1` | -28.54% | 9.497% | -10.68% |
| `Cc1nnc(CSc2n[nH]c(-c3ccccn3)n2)o1` | 13.15% | 10.44% | 1.1% |
| `CCCc1nc(CN2CCCN(Cc3nccn3C)CC2)no1` | 4.767% | 10.69% | -3.81% |
| `O=C(Cc1ccccc1)N1CCC2(CCN2Cc2ccc(F)cc2)C1` (stereo not drawn) | - | 13.45% | - |
| `CCN(CCNC(=O)c1ccccc1OCCOC)C1CC1` | -28.71% | 4.861% | - |
| `CS(=O)(=O)N1C[C@@H]2COC[C@@H](CC(=O)N3CCCCO3)[C@@H]2C1` | - | 4.38% | - |
| `Cc1cccc(N2CC[C@@H]3CN(Cc4csc(C)n4)CCO[C@@H]3C2)n1` | - | 9.013% | - |
| `COc1cnc(N2CCN(C)CC2)nc1-c1ccnn1C` | -160.3% | 16.01% | - |
| `CC1CCN(Cc2cc(=O)[nH]c(=O)[nH]2)CC1` | 7.543% | 2.899% | -17.88% |
| `CN(CCS(=O)(=O)c1cc(Cl)ccc1Cl)CC(=O)Nc1ccc(F)cc1` | 3.031% | 8.424% | 110.1% |
| `Cc1nc(C)c(C(C)NCc2c(C)nn(C)c2N(C)C)s1` (stereo not drawn) | 8.772% | 11.67% | 45.94% |
| `CC(=O)N1CCC2(CCN(C(=O)c3ccc(Cl)c(C(F)(F)F)c3)C2)C1` (stereo not drawn) | -22.84% | 0% | 30.89% |
| `COC(=O)Cc1cccc(NC(=O)Cc2ccon2)c1` | 5.054% | 2.787% | 10.84% |
| `c1ccc(Cc2n[nH]c(C3CCOC3)n2)cc1` (stereo not drawn) | -1.107% | 21.77% | -5.73% |
| `Cn1cc(Br)c(C(=O)NCCCn2cc(Cl)cn2)n1` | 11.94% | 16.63% | 14.93% |
| `Cc1noc(C2CCC3(CCN(C(=O)c4sccc4C)CC3)O2)n1` (stereo not drawn) | -27.76% | 12.69% | - |
| `c1ccc(CCN2CCN(C3CCOC4(CCOCC4)C3)CC2)cc1` (stereo not drawn) | -7.985% | 19.81% | 21.32% |
| `CC(=O)NC1CCCc2c1[nH]c1ccc(F)cc21` (stereo not drawn) | -13.67% | 12.83% | 8.133% |
| `Cc1cc(C(=O)N2CCn3cnc(COCC4CC4)c3C2)no1` | -11.59% | 11.35% | 24.97% |
| `Cc1nc(C2CCCN(C(=O)c3ccc(OCC4CC4)cc3)C2)no1` (stereo not drawn) | 3.638% | 7.874% | 6.568% |
| `N#Cc1ccccc1OCCN1CCCC(c2noc(C3CC3)n2)C1` (stereo not drawn) | -3.16% | 17.73% | -0.08334% |
| `CCc1cnc(CN(C)C(=O)NC2CCN(CC3CC3)C2)s1` (stereo not drawn) | -4.736% | 4.878% | -13.18% |
| `O=C(O)C(F)(F)F.O=C1CC(c2ccccc2)C2(CCN(C(=O)c3ccncc3F)CC2)N1` (stereo not drawn) | 3.004% | - | 26.53% |
| `COCCc1noc(CN2CCOC(Cn3cc(C)cn3)C2)n1` (stereo not drawn) | -3.296% | 21.86% | - |
| `Cc1nc(N2CCCCC2)ncc1-c1cc(O)[nH]n1` | -2.049% | 36.93% | - |
| `CCOCC1CN(Cc2ccoc2)Cc2nn(C)cc21` (stereo not drawn) | - | 15.27% | - |
| `CCOc1ccc(C(F)(F)F)cc1NC(=O)N1CCNC(=O)C1` | -3.887% | 11.49% | 13.57% |
| `CC(=O)CSc1nc2c(cnn2CCO)c(=O)[nH]1` | 2.658% | 2.254% | -0.2814% |
| `Cc1cc(CCC(=O)O)nc(C2CCCN2c2ccnc(C)n2)n1` (stereo not drawn) | -32.01% | 20.58% | -13.37% |
| `Cc1ccncc1NS(=O)(=O)c1ccc(Cl)s1` | 18.83% | 23.16% | 38.29% |
| `COCCC(=O)N1CCCC2(CCC(=O)N(CCc3c[nH]cn3)C2)C1` (stereo not drawn) | -8.765% | 8.602% | 35% |
| `Cc1cnc(N2CC[C@@H](N3CCOCC3)[C@@H]2Cc2ccncc2)nc1.O=C(O)C(F)(F)F.O=C(O)C(F)(F)F` | -11.66% | - | 28.47% |
| `CN(C)c1ncc2c(n1)CN(C1CCSCC1)C2=O` | -9.059% | 10.3% | - |
| `Cc1cc2cccc(NC(=O)N3CCC(N(C)C)C3)c2o1` (stereo not drawn) | 13.75% | 17.37% | 27.68% |
| `NC(=O)[C@@H]1Cc2ccccc2N1C(=O)C1CC(c2ccccc2)=NO1` (stereo partly drawn) | 10.1% | 5.882% | - |
| `COCCO[C@H]1CCN(C(=O)c2cc(C)on2)[C@H]1Cc1ccccc1` | -13.22% | 12.46% | 14.72% |
| `CCN(Cc1ccc2c(c1)OCO2)S(=O)(=O)N(C)C` | -8.197% | 13.07% | - |
| `O=C(NCc1cc2n(n1)CCCNC2)c1cn2cc(Cl)ccc2n1` | -25% | 2.957% | 5.559% |
| `Cc1ccc(-c2cnnc(N3CCCC3c3nccs3)n2)o1` (stereo not drawn) | 19.39% | 17.35% | 27.8% |
| `CNc1ncc2c(n1)CN(CCc1ccc(C)cc1)C2=O` | 2.216% | 15.01% | 8.766% |
| `O=C(COCC(=O)N1CCCCCC1)NCc1cccc(Br)c1` | -31.71% | 9.945% | - |
| `CC(C)c1nnc(N2C[C@@H]3CC[C@H](C2)N(CC2CCC2)C3)s1` | - | 15.92% | - |
| `COc1ccc(C(=O)N2CCN(c3cc(CCN)nc(C)n3)CC2)cc1` | 5.07% | 34.78% | 27.5% |
| `CCOC(=O)CC(c1ccc(OC)cc1)c1c(O)n[nH]c1C` (stereo not drawn) | -27.44% | 13.94% | 25.52% |

Once more, the final 6:

structure,A,B,C
Cc1ccc(-c2cnnc(N3CCCC3c3nccs3)n2)o1 (stereo not drawn),19.39%,17.35%,27.8%
CNc1ncc2c(n1)CN(CCc1ccc(C)cc1)C2=O,2.216%,15.01%,8.766%
O=C(COCC(=O)N1CCCCCC1)NCc1cccc(Br)c1,-31.71%,9.945%,-
CC(C)c1nnc(N2C[C@@H]3CC[C@H](C2)N(CC2CCC2)C3)s1,-,15.92%,-
COc1ccc(C(=O)N2CCN(c3cc(CCN)nc(C)n3)CC2)cc1,5.07%,34.78%,27.5%
CCOC(=O)CC(c1ccc(OC)cc1)c1c(O)n[nH]c1C (stereo not drawn),-27.44%,13.94%,25.52%